Source: patent publication US11738099B2 (CASE WESTERN RESERVE UNIVERSITY, priority 2014, dated 2023)
Where no end group is shown, it is not given here.

Assay: general procedure: Fmoc solid-phase peptide synthesis; 2-chlorotrityl chloride resin
Conditions: conjugation step

CTVRTSAD
conjugation yield: 82%
